These are yes or no findings as the source states them, for the method shown.
Assays:
[1] = target: dimer-interface mutant gp43(exo-) polymerase (D75R, Q430E, K432E in gp43(exo-) D219A) (bacteriophage T4) (UniProt P04415); test: SEC; mixtures of the gp45 clamp and P/T DNA with either gp43(exo-) or the dimer-interface mutant polymerase; conditions not given; both purified
[2] = target: dimer-interface mutant gp43(exo-) polymerase (D75R, Q430E, K432E in gp43(exo-) D219A) (bacteriophage T4) (UniProt P04415); test: cryo-EM structure; 10 μM gp45 clamp mixed with 5 μM primer/template DNA (20 mM HEPES pH 7.5, 150 mM KOAc, 10 mM MgCl2, 0.5 mM ddTTP, 2 mM DTT; 10 min, 30°C), then 6 μM gp43 polymerase added (10 min room temperature, 1 h on ice); no clamp loader; both purified

B1: dimer-interface mutant gp43(exo-) polymerase (D75R, Q430E, K432E in gp43(exo-) D219A) (enzyme, bacteriophage T4)
chain: MKEFYISIETVGNNIVERYIDENGKERTREVEYLPTMFRHCKEESKYKDIYGKNCAPQKFPSMKDARDWMKRMERIGLEALGMNDFKLAYISDTYGSEIVYDRKFVRVANCDIEVTGDKFPDPMKAEYEIDAITHYDSIDDRFYVFDLLNSMYGSVSKWDAKLAAKLDCEGGDEVPQEILDRVIYMPFDNERDMLMEYINLWEQKRPAIFTGWNIEGFAVPYIMNRVKMILGERSMKRFSPIGRVKSKLIQNMYGSKEIYSIDGVSILDYLDLYKKFAFTNLPSFSLESVAQHETKKGKLPYDGPINKLRETNHQRYISYNIIDVESVQAIDKIRGFIDLVLSMSYYAKMPFSGVMSPIKTWDAIIFNSLKGEHKVIPQQGSHVKQSFPGAFVFEPKPIARRYIMSFDLTSLYPSIIRQVNISPETIRGEFEVHPIHEYIAGTAPKPSDEYSCSPNGWMYDKHQEGIIPKEIAKVFFQRKDWKKKMFAEEMNAEAIKKIIMKGAGSCSTKPEVERYVKFSDDFLNELSNYTESVLNSLIEECEKAATLANTNQLNRKILINSLYGALGNIHFRYYDLRNATAITIFGQVGIQWIARKINEYLNKVCGTNDEDFIAAGDTDSVYVCVDKVIEKVGLDRFKEQNDLVEFMNQFGKKKMEPMIDVAYRELCDYMNNREHLMHMDREAISCPPLGSKGVGGFWKAKKRYALNVYDMEDKRFAEPHLKIMGMETQQSSTPKAVQEALEESIRRILQEGEESVQEYYKNFEKEYRQLDYKVIAEVKTANDIAKYDDKGWPGFKCPFHIRGVLTYRRAVSGLGVAPILDGNKVMVLPLREGNPFGDKCIAWPSGTELPKEIRSDVLSWIDHSTLFQKSFVKPLAGMCESAGMDYEEKASLDFLFG
notes: DNA polymerase gp43 of bacteriophage T4 with D219A (exo-) and the three dimer-interface mutations D75R, Q430E and K432E; PDB 9EA3 holds this mutant; the other three entries hold its parent m1; also called dimer-interface mutant polymerase; mutant polymerase; source: E. coli BL21(DE3), purified (chitin resin with intein-mediated cleavage, heparin)
**Q.** B1 was tested. Which binding [1] did it give?
**A.** no binding

**Q.** And the binding [2]?
**A.** no binding (tested: 6 μM gp43 polymerase)

From article PMC12746103, “Structural insights into the exchange mechanism of a replicative DNA polymerase” (Nucleic Acids Research, 2025)
